Measured values published in PMC8184839.
These are yes or no findings as the source states them, for the method shown. Some results given as binding are weak or reduced against the parent protein; the word gives no strength.

Chains of the proteins cited; added tags and fusions are not shown. Lines headed by an entry give the natural chain unless they say otherwise; changes in a name come on top.
UniProt P24385: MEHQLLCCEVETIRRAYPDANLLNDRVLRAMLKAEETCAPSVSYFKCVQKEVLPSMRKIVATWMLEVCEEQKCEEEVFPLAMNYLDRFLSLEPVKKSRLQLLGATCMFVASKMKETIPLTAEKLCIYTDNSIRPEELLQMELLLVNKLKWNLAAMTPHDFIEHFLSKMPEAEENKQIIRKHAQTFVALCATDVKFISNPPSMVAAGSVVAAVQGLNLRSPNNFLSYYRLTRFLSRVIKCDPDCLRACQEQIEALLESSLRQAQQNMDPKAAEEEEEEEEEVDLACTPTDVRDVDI
UniProt P30279: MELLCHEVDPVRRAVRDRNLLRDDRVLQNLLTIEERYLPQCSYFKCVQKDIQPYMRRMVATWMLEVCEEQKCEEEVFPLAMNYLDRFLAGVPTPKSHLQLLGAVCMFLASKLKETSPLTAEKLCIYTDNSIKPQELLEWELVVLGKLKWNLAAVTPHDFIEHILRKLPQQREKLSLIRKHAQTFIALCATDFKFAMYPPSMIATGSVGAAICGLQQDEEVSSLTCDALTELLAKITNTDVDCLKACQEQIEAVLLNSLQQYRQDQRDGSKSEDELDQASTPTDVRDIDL
UniProt P11802: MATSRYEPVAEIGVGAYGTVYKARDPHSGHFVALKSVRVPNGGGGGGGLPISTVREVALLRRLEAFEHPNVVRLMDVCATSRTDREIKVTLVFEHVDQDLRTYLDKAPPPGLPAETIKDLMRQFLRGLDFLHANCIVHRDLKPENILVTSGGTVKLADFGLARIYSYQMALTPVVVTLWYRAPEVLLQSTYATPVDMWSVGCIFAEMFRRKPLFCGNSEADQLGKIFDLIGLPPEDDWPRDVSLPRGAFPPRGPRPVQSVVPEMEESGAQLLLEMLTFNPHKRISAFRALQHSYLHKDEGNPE
UniProt Q00534: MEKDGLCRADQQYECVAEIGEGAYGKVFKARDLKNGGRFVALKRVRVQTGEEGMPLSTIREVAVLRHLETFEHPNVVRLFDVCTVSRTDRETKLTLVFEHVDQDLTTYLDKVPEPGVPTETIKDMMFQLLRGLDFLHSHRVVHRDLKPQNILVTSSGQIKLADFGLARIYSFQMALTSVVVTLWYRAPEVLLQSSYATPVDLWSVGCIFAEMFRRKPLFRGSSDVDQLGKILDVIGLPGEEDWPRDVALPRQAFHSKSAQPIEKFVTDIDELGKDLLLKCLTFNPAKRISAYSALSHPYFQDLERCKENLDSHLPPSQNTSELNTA
UniProt P38936: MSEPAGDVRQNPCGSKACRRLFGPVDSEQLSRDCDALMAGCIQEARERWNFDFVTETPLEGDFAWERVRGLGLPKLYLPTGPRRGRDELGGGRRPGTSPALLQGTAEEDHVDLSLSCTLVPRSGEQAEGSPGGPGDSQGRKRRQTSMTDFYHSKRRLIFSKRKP
UniProt P46527: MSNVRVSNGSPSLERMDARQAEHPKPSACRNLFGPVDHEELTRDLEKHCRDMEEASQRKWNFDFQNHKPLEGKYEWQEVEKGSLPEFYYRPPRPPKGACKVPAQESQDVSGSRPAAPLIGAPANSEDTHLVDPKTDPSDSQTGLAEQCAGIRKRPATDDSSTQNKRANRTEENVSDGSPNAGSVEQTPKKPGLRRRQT

Assays:
[1] = molecular target: cyclin D1-CDK6 (mVenus-cyclin D1 with CDK6-mTurquoise-Δ50 lamin A) (UniProt P24385); assay: recruitment to a CDK tethered at the inner nuclear membrane, with FRAP; live RPE-1 cells with mVenus-cyclin, CDK-mTurquoise-Δ50 lamin A and mRuby3-p21, mRuby3-p27 or p21KID co-expressed; no CDK4/6 inhibitor (untreated or DMSO); recovery of the cyclin or of p21/p27 over 15 min after photobleaching; 37 °C
[2] = molecular target: cyclin D1-CDK4 (mVenus-cyclin D1 with CDK4-mTurquoise-Δ50 lamin A) (UniProt P24385); assay: as above
cyclin D2-CDK4 = cyclin D2-CDK4 (UniProt P30279); assay: recruitment to a CDK tethered at the inner nuclear membrane, with FRAP; as a4 but with 6 µM palbociclib overnight and throughout, or 6 µM palbociclib, ribociclib or abemaciclib added acutely about 4-5 min after photobleaching
[3] = molecular target: cyclin D1-CDK6 (mVenus-cyclin D1 with CDK6-mTurquoise-Δ50 lamin A) (UniProt P24385); assay: as above
[4] = molecular target: cyclin D1-CDK4 (mVenus-cyclin D1 with CDK4-mTurquoise-Δ50 lamin A) (UniProt P24385); assay: as above
[5] = molecular target: CDK4-mTurquoise-Δ50 lamin A (UniProt P11802); assay: recruitment to a CDK tethered at the inner nuclear membrane; RPE-1 cells with cyclin D1 and tethered CDK4, co-knockdown of p21/p27 and overnight treatment with palbociclib (6 µM)
[6] = molecular target: CDK4-mTurquoise-Δ50 lamin A (UniProt P11802); assay: recruitment to a CDK tethered at the inner nuclear membrane, with FRAP; live RPE-1 cells with mVenus-cyclin, CDK-mTurquoise-Δ50 lamin A and mRuby3-p21, mRuby3-p27 or p21KID co-expressed; no CDK4/6 inhibitor (untreated or DMSO); recovery of the cyclin or of p21/p27 over 15 min after photobleaching; 37 °C
[7] = molecular target: CDK4-mTurquoise-Δ50 lamin A (UniProt P11802); assay: recruitment to a CDK tethered at the inner nuclear membrane, with FRAP; as a4 but with 6 µM palbociclib overnight and throughout, or 6 µM palbociclib, ribociclib or abemaciclib added acutely about 4-5 min after photobleaching
[8] = molecular target: CDK4-mTurquoise-Δ50 lamin A (UniProt P11802); assay: recruitment to a CDK tethered at the inner nuclear membrane; p21/p27 double-knockout MEFs transfected with cyclin D1 and CDK4 constructs; imaged without the cytoskeleton drug cocktail
[9] = molecular target: CDK6-mTurquoise-Δ50 lamin A (UniProt Q00534); assay: recruitment to a CDK tethered at the inner nuclear membrane, with FRAP; live RPE-1 cells with mVenus-cyclin, CDK-mTurquoise-Δ50 lamin A and mRuby3-p21, mRuby3-p27 or p21KID co-expressed; no CDK4/6 inhibitor (untreated or DMSO); recovery of the cyclin or of p21/p27 over 15 min after photobleaching; 37 °C
[10] = molecular target: CDK6-mTurquoise-Δ50 lamin A (UniProt Q00534); assay: recruitment to a CDK tethered at the inner nuclear membrane, with FRAP; live RPE-1 cells with mVenus-cyclin and CDK-mTurquoise-Δ50 lamin A, p21 and p27 depleted by siRNA co-knockdown; recovery of mVenus after photobleaching; 37 °C

Substance	binding [1]	binding [2]	binding [3]	binding [4]	other results
mRuby3-p21 (from UniProt P38936 1-164)	binds	binds	binds	–	binding (cyclin D2-CDK4): binds weakly
mRuby3-p27 (from UniProt P46527 1-198)	binds	binds	binds	binds	–
mVenus-cyclin D1 (from UniProt P24385 1-295)	–	–	–	–	binding [5]: binds; binding [6]: binds; binding [7]: binds; binding [8]: binds
mVenus-cyclin D1 (from UniProt P24385 1-295) (other; other documents disagree on this pair)	–	–	–	–	binding [9]: binds; binding [10]: binds
p21KID (amino acids 14-81) (from UniProt P38936 14-81) (domain or fragment)	binds	binds	binds	binds weakly	–
